These are yes or no findings as the source states them, for the method shown.
What was measured:
Test in all cases: SEC; Superdex-75 10/300 GL, 50 mM Hepes pH 7.4, 250 mM NaCl, 10% glycerol, 0.1% DDM; detergent-solubilized protein; both purified
[1] = target: T1, WT RHBDL4 (human rhomboid protease RHBDL4, recombinant) (human) (UniProt Q8TEB9)
T1 sequence: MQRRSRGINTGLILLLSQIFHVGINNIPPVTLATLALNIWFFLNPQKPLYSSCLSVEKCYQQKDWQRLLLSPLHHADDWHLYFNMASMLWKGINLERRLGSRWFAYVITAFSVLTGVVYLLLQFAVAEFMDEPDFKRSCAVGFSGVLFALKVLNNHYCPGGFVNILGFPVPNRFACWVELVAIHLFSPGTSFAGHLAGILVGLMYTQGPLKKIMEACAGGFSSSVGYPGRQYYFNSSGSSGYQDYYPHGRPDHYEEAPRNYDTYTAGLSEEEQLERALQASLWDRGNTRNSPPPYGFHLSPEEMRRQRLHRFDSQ

[2] = target: inactive RHBDL4-S144A (human) (UniProt Q8TEB9)
RHBDL4-AR (human) = RHBDL4-AR (human) (UniProt Q8TEB9)
RHBDL4-Ax3G (human) = RHBDL4-Ax3G (human) (UniProt Q8TEB9)

B1: WT RHBDL4 (human rhomboid protease RHBDL4, recombinant) (enzyme, UniProt Q8TEB9 1-315)
chain: MQRRSRGINTGLILLLSQIFHVGINNIPPVTLATLALNIWFFLNPQKPLYSSCLSVEKCYQQKDWQRLLLSPLHHADDWHLYFNMASMLWKGINLERRLGSRWFAYVITAFSVLTGVVYLLLQFAVAEFMDEPDFKRSCAVGFSGVLFALKVLNNHYCPGGFVNILGFPVPNRFACWVELVAIHLFSPGTSFAGHLAGILVGLMYTQGPLKKIMEACAGGFSSSVGYPGRQYYFNSSGSSGYQDYYPHGRPDHYEEAPRNYDTYTAGLSEEEQLERALQASLWDRGNTRNSPPPYGFHLSPEEMRRQRLHRFDSQ
Question: For B1, which binding [1] is on record?
Answer: no binding

B2: inactive RHBDL4-S144A (enzyme, UniProt Q8TEB9 1-315)
chain: MQRRSRGINTGLILLLSQIFHVGINNIPPVTLATLALNIWFFLNPQKPLYSSCLSVEKCYQQKDWQRLLLSPLHHADDWHLYFNMASMLWKGINLERRLGSRWFAYVITAFSVLTGVVYLLLQFAVAEFMDEPDFKRSCAVGFAGVLFALKVLNNHYCPGGFVNILGFPVPNRFACWVELVAIHLFSPGTSFAGHLAGILVGLMYTQGPLKKIMEACAGGFSSSVGYPGRQYYFNSSGSSGYQDYYPHGRPDHYEEAPRNYDTYTAGLSEEEQLERALQASLWDRGNTRNSPPPYGFHLSPEEMRRQRLHRFDSQ
Question: Which binding [2] does the source give for B2 here?
Answer: no binding

B3: RHBDL4-AR (enzyme, UniProt Q8TEB9 1-315)
chain: MQRRSRGINTGLILLLSQIFHVGINNIPPVTLATLALNIWFFLNPQKPLYSSCLSVEKCYQQKDAQRLLLSPLHHADDWHLYFNMASMLWKGINLERRLGSRWFAYVITAFSVLTGVVYLLLQFAVAEFMDEPDFKRSCAVGFSGVLFALKVLNNHYCPGGFVNILGFPVPNRFACWVELVAIHLFSPGTSFAGHLAGILVGLMYTQGPLKKIMEACAGGFSSSVGYPGRQYYFNSSGSSGYQDYYPHGRPDHYEEAPRNYDTYTAGLSEEEQLERALQASLWDRGNTRNSPPPYGFHLSPEEMRRQRLHRFDSQ
Question: How did the binding (RHBDL4-AR (human)) turn out when B3 was run?
Answer: no binding

B4: RHBDL4-Ax3G (enzyme, UniProt Q8TEB9 1-315)
chain: MQRRSRGINTGLILLLSQIFHVGINNIPPVTLATLALNIWFFLNPQKPLYSSCLSVEKCYQQKDWQRLLLSPLHHADDWHLYFNMASMLWKGINLERRLGSRWFAYVITAFSVLTGVVYLLLQFAVAEFMDEPDFKRSCAVGFSGVLFALKVLNNHYCPGGFVNILGFPVPNRFACWVELVAIHLFSPGTSFAGHLAAILVGLMYTQGPLKKIMEACAGGFSSSVGYPGRQYYFNSSGSSGYQDYYPHGRPDHYEEAPRNYDTYTAGLSEEEQLERALQASLWDRGNTRNSPPPYGFHLSPEEMRRQRLHRFDSQ
Question: B4 was tested. Which binding (RHBDL4-Ax3G (human)) did it give?
Answer: no binding
